The assay addresses recombinant full-length vimentin (UniProt P08670). Description: negative stain electron microscopy.

Amino acid sequences for entries named in this document (tags omitted).
UniProt P08670: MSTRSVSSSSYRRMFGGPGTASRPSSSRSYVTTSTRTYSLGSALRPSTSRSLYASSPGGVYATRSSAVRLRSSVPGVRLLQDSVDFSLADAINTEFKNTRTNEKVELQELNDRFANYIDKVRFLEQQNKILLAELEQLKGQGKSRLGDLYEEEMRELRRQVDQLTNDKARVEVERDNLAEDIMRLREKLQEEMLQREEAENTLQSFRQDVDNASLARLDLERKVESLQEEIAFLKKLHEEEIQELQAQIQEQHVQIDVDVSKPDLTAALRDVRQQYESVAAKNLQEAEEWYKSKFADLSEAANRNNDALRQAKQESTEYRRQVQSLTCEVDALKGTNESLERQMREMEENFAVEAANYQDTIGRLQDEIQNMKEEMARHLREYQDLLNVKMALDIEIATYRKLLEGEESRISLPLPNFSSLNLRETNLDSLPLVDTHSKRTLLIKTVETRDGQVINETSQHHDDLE

No constants are given. Whether binding was seen depends on the method and setting. Some results given as binding are weak or reduced against the parent protein; the word gives no strength.

Turning to “recombinant full-length vimentin (from UniProt P08670 1-466)”, the binding entry is given as “binds”.
